In article PMC12907901 one finds binding data, which are given here for 3 substances.

The chains behind the UniProt entries cited, without tags or fusion partners. Where a name states a change or a piece, a line headed by the entry shows the natural chain unless it says otherwise.
UniProt Q6IQ49: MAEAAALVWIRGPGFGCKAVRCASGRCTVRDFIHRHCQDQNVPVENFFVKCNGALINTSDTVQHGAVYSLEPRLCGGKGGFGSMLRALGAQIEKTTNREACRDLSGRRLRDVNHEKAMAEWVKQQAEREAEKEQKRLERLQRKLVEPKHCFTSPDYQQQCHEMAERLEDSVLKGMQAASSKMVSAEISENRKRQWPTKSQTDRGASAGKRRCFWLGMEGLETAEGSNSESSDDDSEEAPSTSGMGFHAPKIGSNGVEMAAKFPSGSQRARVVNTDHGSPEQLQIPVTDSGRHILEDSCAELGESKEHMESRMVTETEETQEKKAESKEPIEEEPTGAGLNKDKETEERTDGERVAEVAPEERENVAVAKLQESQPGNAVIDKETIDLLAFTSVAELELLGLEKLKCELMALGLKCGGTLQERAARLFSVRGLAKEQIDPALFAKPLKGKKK
UniProt Q9H1Y0: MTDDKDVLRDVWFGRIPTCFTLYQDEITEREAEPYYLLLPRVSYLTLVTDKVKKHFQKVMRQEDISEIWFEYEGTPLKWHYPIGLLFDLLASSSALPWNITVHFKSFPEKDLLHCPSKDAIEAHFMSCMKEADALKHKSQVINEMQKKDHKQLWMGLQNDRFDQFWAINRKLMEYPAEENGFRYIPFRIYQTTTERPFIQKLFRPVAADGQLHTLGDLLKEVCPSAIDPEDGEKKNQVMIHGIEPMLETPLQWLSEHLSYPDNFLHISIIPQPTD

In assay [1] the target is Flag-tagged SDE2 (wild-type) (human) (UniProt Q6IQ49). In words: co-IP; HEK293T co-transfected with Myc-tagged ATG5 and Flag-tagged SDE2 (wild-type or Δ1); immunoprecipitation with anti-Flag, immunoblot with anti-Myc and anti-Flag. On the technique in general: In western blotting, separated proteins are transferred to a membrane and probed.
In assay [2] the target is Flag-tagged ATG5 (human) (UniProt Q9H1Y0). In words: co-IP; HEK293T; HA-SDE2 variants (full-length and truncations) with Flag-tagged ATG5.
For assay [3], the target named is ATG5 (endogenous, KMS-11 cells) (human (endogenous in KMS-11)) (UniProt Q9H1Y0). In words: co-IP + cross-linking; endogenous proteins in KMS-11 lysate; lysate treated with 1 mM EDC for 30 min at room temperature before immunoprecipitation; anti-SDE2 or anti-ATG5 overnight at 4 °C, Protein A/G agarose, Western blot.

These are yes or no findings as the source states them, for the method shown. In cells and extracts the contact can be indirect. Binding can be weak; no strength is given.

For the substance “Myc-tagged ATG5 (from UniProt Q9H1Y0-1 1-275)”, the binding entry in assay [1] is listed as “binds”.

For the substance “HA-SDE2 full-length (from UniProt Q6IQ49-1)”, the binding entry in assay [2] is “binds”.

For “SDE2 (endogenous, KMS-11 cells) (from UniProt Q6IQ49)”, the binding entry in assay [3] is recorded as “binds”.
